Test results as given in PubChem BioAssay AID463116 (University of Pittsburgh Molecular Library Screening Center, 2010).
This is one part of the list. Further columns of the screen follow, without active or inactive calls. The list favours compounds with an active or inconclusive main result.

experiment: dynein cargo transport inhibitors, GR-EGFP translocation, confirmation, imaging, high-content imaging, GR-EGFP cells (AID 463116); conditions: 3617.4 GR-EGFP nuclear translocation imaging, dexamethasone-induced; measured here: cell count per field; at 20 µM

| SMILES | z-score |
| --- | --- |
| CN(C)CCCN(C(=O)CCOc1ccccc1)c1nc2ccc(F)cc2s1 | 0.263 |
| CN1CCN(Cc2nc3ccccc3c(=O)n2Cc2nc(-c3ccc([N+](=O)[O-])cc3)cs2)CC1 | -3.51 |
| COc1ccc(/C=C/C(=O)CC(O)(c2ccccc2)C(F)(F)F)cc1 (stereo not given) | 0.57 |
| O=C1CC(Sc2nnc(-c3ccccc3O)o2)C(=O)N1c1ccccc1 (stereo not given) | -1.75 |
| CC1=NN(c2ccccc2)C(=O)/C1=C\C=C\c1ccccc1 | -0.0965 |
| O=C(OCn1ncc(Br)c(Br)c1=O)c1c(F)cccc1F | 0.332 |
| Cc1ccc(S(=O)(=O)/N=C(\Sc2ccccc2)c2ccccc2)cc1 | 0.594 |
| CC(C)(c1ccccc1)c1ccc(OCC(O)CNC2CCN(Cc3ccccc3)CC2)cc1 (stereo not given) | -5.44 |
| COc1ccc(NC(=O)/C(Cl)=C(/Cl)S(=O)(=O)Cc2ccc(C)cc2)cn1 | -2.42 |
| COc1cc(/C=C(/C(=O)c2cccs2)c2nc3ccccc3[nH]2)ccc1O | 0.396 |
| CC1=CC(=O)C(C(C)C)=C/C1=N/OS(=O)(=O)c1ccccc1 | -5.34 |
| CC(=O)N1c2ccccc2C(CBr)=CC1(C)C | 0.751 |
| CC(C)c1ccc(CN2CCN(C(=O)CCl)CC2)cc1 | 0.331 |
| Cc1ccc(S(=O)(=O)Nc2ccc3c(c2)nc2n3CCN(Cc3ccccc3)C2)cc1 | 0.636 |
| N#Cc1ccccc1Cn1cc(/C=C/[N+](=O)[O-])c2ccccc21 | -0.000683 |
| COC(CNC(=O)c1ccc2c3c(onc13)-c1ccccc1C2=O)OC | -0.834 |
| CCOc1cc(/C=C\[N+](=O)[O-])ccc1OCC(=O)N1CCOCC1 | 0.132 |
| CC(=O)Nc1ccc(SC[C@H](c2ccccc2)N2CCN(CCc3ccccc3)CCC2=O)cc1 | -0.166 |
| CCOC(=O)C1=C(CSc2nc(-c3ccncc3)ccc2C#N)OC(N)=C(C#N)C1c1ccc(OC)cc1 (stereo not given) | 0.738 |
| CCCCCCC(=O)N(O)C1CC(=O)N(c2ccc(F)cc2)C1=O (stereo not given) | 0.306 |
| N=c1n(CCN2CCCCC2)c2ccccc2n1CC(=O)c1ccc(Cl)c(Cl)c1 | -4.67 |
| CCOC(=O)c1ccc(N=c2sc(C(=O)OC)cc(=O)n2Cc2ccco2)cc1 | 0.192 |
| O=C(/C=C/c1cccs1)c1cc(Cl)ccc1OC(=O)N1CCOCC1 | 0.143 |
| O=C(/C=C/c1ccc(N2CCCCC2)c([N+](=O)[O-])c1)c1ccc(O)cc1 | 0.82 |
| Cc1cc2c(cc1C)NC(CC(=O)NCc1ccccc1)C(=O)N2 (stereo not given) | -0.0446 |

| SMILES | z-score |
| --- | --- |
| CCC(=O)Nc1cccc(C(=O)/C=C/c2ccc(F)cc2)c1 | -0.912 |
| NC(=O)c1ccc(NC(=O)CSC2=Nc3ccccc3C3CC=NN23)cc1 (stereo not given) | 0.689 |
| CCC(=O)Nc1ccc(/C=C(\C(C)=O)C(=O)c2ccccc2)cc1 | -0.0871 |
| COc1ccc(/C=C/C(=O)c2cc(Br)ccc2OC(=O)c2ccco2)cc1OC | 0.327 |
| CCc1cccc2cc3c(N)c(C(=O)Nc4ccc(S(=O)(=O)N5CCCC5)cc4)sc3nc12 | 0.196 |
| CCCN(CCC)S(=O)(=O)c1ccc(Cl)c([N+](=O)[O-])c1 | -0.0346 |
| COc1ccc(C2C(C#N)=C(N)Oc3c2sc2nc(C)cc(C)c32)cc1 (stereo not given) | -0.0627 |
| Cc1ccnc(N/C=C(\C#N)c2nc(-c3cccc(Br)c3)cs2)c1 | 0.529 |
| Cc1cc(C)n(-c2nc(NCCN(C)C)c3c4c(sc3n2)CCCC4)n1 | -6.37 |
| CS(=O)(=O)c1cc([N+](=O)[O-])c(Sc2nc3ccccc3[nH]2)c([N+](=O)[O-])c1 | 0.408 |
| O=C(/C=C/c1cccc([N+](=O)[O-])c1)n1cnc2ccccc21 | 0.319 |
| O=C(/C=C/c1cc(Br)ccc1O)c1ccco1 | -0.774 |
| CC(C)N(CC(=O)Nc1ccc(Cl)cc1C(F)(F)F)C(=O)CCl | -0.0726 |
| CNC(=O)COC(=O)c1ccccc1C(=O)c1ccc(Cl)c([N+](=O)[O-])c1 | -0.784 |
| O=S(=O)(CCSc1nc2ccccc2o1)c1nc2ccccc2s1 | -0.0152 |
| O=[N+]([O-])c1ccc(N2CCN(c3ccc(Cl)nn3)CC2)cc1NC1CC1 | 0.512 |
| CN(C)CC(C(=O)c1ccccc1)c1ccccc1 (stereo not given) | -0.446 |
| COC(=O)c1cc(=O)n(Cc2cccs2)c(=Nc2ccccc2)s1 | 0.42 |
| COc1ccc(-c2cc(C(F)(F)F)nc(S(=O)(=O)CCCC(=O)Nc3cccc(O)c3)n2)cc1OC | 0.333 |
| Cc1ccc(/C=C2/C(=O)ON=C2c2ccccc2)o1 | 0.253 |
| Nc1c(C(=O)c2ccc(Cl)cc2)sc2nsc(SCCN3CCOCC3)c12 | -0.365 |
| O=C1C=CC(O)(c2cc(=O)c3c(O)cc(O)cc3o2)C=C1 | 0.000739 |
| COc1ccc(C(C(=O)NC2CCCCC2)N(C(=O)CCl)c2cccc(Cl)c2)cc1 (stereo not given) | 0.651 |
| N#Cc1cccc(NC(=O)CSc2ccc3c4c(cccc24)C(=O)c2ccccc2-3)c1 | 0.279 |
| CCOC(=O)c1c(-c2ccccc2)csc1NC(=O)/C(C#N)=C/c1ccc(O)c(OC)c1 | -0.508 |

Ordered by molecular weight (smallest number first): part of the list above

| SMILES | z-score |
| --- | --- |
| O=C(/C=C/c1cc(Br)ccc1O)c1ccco1 | -0.774 |
| CC(C)c1ccc(CN2CCN(C(=O)CCl)CC2)cc1 | 0.331 |
| COC(=O)c1cc(=O)n(Cc2cccs2)c(=Nc2ccccc2)s1 | 0.42 |
| O=C1CC(Sc2nnc(-c3ccccc3O)o2)C(=O)N1c1ccccc1 (stereo not given) | -1.75 |
| N#Cc1cccc(NC(=O)CSc2ccc3c4c(cccc24)C(=O)c2ccccc2-3)c1 | 0.279 |
| N=c1n(CCN2CCCCC2)c2ccccc2n1CC(=O)c1ccc(Cl)c(Cl)c1 | -4.67 |

The results go on:

| SMILES | z-score |
| --- | --- |
| O=[N+]([O-])c1ccc(-c2ccc(/C=N/Nc3nc(N4CCCCC4)nc(N4CCCCC4)n3)o2)cc1 | 0.11 |
| COc1cc(OC)c2c(O)c3c(c(-c4c5c(c(O)c6c(OC)cc(OC)cc46)CO[C@@H](C)[C@H]5O)c2c1)[C@H](O)[C@H](C)OC3 | 0.48 |
| N#C/C(=C\c1cccc([N+](=O)[O-])c1)C(=O)NCc1ccc(Cl)cc1 | 0.893 |
| O=C(NCc1cccnc1)/C(=C\c1ccc(-c2cccc(Cl)c2)o1)S(=O)(=O)c1ccccc1 | 0.247 |
| CC(=O)N1/C(=C/c2ccc(N(C)C)cc2)C(=O)c2ccccc21 | -0.792 |
| CC(=O)Nc1sc(/C(C#N)=C/c2ccc(Cl)c(Cl)c2)nc1-c1ccc(C)cc1 | -0.136 |
| C=C1C(=O)[C@@]23[C@H](O)C[C@@H]4C(C)(C)CC[C@H](O)[C@]4(C)[C@@H]2C[C@H](O)[C@@H]1[C@H]3O | 0.508 |
| COc1ccc(N2C(=O)CC(Sc3nnnn3-c3ccc(F)cc3)C2=O)cc1 (stereo not given) | -0.023 |
| Cc1nnc(NC(=O)c2sc3nc(-c4cccs4)cc(C(F)(F)F)c3c2N)s1 | 0.228 |
| O=C(CCN1Cc2ccccc2C1)c1ccc2c(c1)OCCO2 | 0.0743 |
| O=C(CCl)Nc1cccc(Oc2ccccc2)c1 | 0.223 |
| N#Cc1cc(-c2ccccc2)nc(Oc2ccc(Cl)cc2)n1 | 0.0125 |
| O=[N+]([O-])c1cc(S(=O)(=O)N2CCCCCC2)ccc1F | -0.161 |
| Cc1ccc(C(C)C)c(OCC(=O)NN=C(CCl)CCl)c1 | -0.363 |
| Nc1ccc(O)cc1C(=O)OCC(=O)c1ccc(C2CCCCC2)cc1 | 0.719 |
| COc1ccc(CCn2c(C)cc(C(=O)CCl)c2C)cc1OC | 0.133 |
| CCOC(=O)CC1C(=O)NCCN1c1nc2ccc(C)cn2c(=O)c1/C=C1\SC(=S)N(CC(C)C)C1=O (stereo not given) | 0.287 |
| N#C/C(=C/c1ccc(N2CCCCC2)o1)C(=O)Nc1ccc(Cl)cc1 | 0.33 |
| O=C(Nc1ccccc1)C1=C(O)CC(c2ccoc2)CC1=Nc1ccccc1 (stereo not given) | 0.661 |
| N#CC1(C#N)C(c2ccccc2)OC23CCCCC2C1(C#N)C(=N)O3 (stereo not given) | -0.311 |
| Cc1onc(-c2c(Cl)cccc2Cl)c1-c1nc2cc(Cl)ccc2c(=O)o1 | -0.892 |
| CC1CCN(CCCNC(=O)c2ccc3c(Cl)c4c(nc3c2)CCCC4)CC1 | 0.829 |
| COc1ccc(C(=O)/C=C/C(=O)N(CC(=O)NC2CCCCC2)Cc2ccccc2OC)c(O)c1 | -0.682 |
| O=[N+]([O-])c1ccc(N/N=C/c2c[nH]c3ccccc23)cc1 | -0.086 |
| CCN(CC)S(=O)(=O)c1cc(NC(=O)Cn2ncc(Cl)c(Cl)c2=O)ccc1C | 0.436 |

Reformatted: entries from further up
Cc1nnc(NC(=O)c2sc3nc(-c4cccs4)cc(C(F)(F)F)c3c2N)s1
  z-score: 0.228
Cc1ccc(C(C)C)c(OCC(=O)NN=C(CCl)CCl)c1
  z-score: -0.363

(listing goes on)

| SMILES | z-score |
| --- | --- |
| Cc1ccc(S(=O)(=O)N[C@@H](Cc2ccccc2)C(=O)CCl)cc1 | -2.38 |
| O=C(/C=C/NNC(=O)c1ccc(Cl)cc1)c1ccccc1 | 0.4 |
| COc1ccc(NC(=O)/C(Cl)=C(/Cl)S(=O)Cc2ccccc2)cn1 (stereo not given) | 0.425 |
| N#Cc1c(C(F)(F)F)cc(-c2ccccc2)nc1SCc1nc(N)nc(N2CCOCC2)n1 | 0.265 |
| CCOC(=O)C(NC(=O)c1cccc(Cl)c1)(Nc1sc2c(c1C(N)=O)CCC2)C(F)(F)F (stereo not given) | 0.0765 |
| COc1ccc(C(=O)/C=C/C(=O)N(CC(=O)NC2CCCCC2)Cc2ccccc2)c(O)c1 | -1.02 |
| CCCCc1c(C)c(C#N)c2nc3ccccc3n2c1Cl | 0.529 |
| CCOC(=O)CSC1=NC(=O)/C(=C\c2ccc(Cl)cc2)S1 | 0.43 |
| COc1ccc(C(=O)/C=C/C(=O)N(CC(=O)NC2CCCCC2)CC2CCCO2)c(O)c1 (stereo not given) | -0.0941 |
| Cc1cc(C(=O)CCl)c(C)n1-c1cccc(S(=O)(=O)N2CCOCC2)c1 | -0.642 |
| CCC1=C2CC[C@H]3C(=O)N(c4ccccc4)C(=O)[C@H]3[C@H]2[C@@]2(C)C(=NCc3ccccc3)OC(=O)N2C1=O | 0.202 |
| Cc1cc(C)nc(S/C=C/C(=O)c2ccccc2F)n1 | 0.675 |
| Cc1ccc(NC(=O)C(=Cc2ccc(C(=O)O)cc2)C(=O)Nc2ccc(C)cc2C)c(C)c1 | 0.227 |
| Cc1[nH]n(-c2ncc(-c3ccc(Cl)cc3)s2)c(=O)c1C(c1ccc(Cl)cc1)C(C#N)C#N (stereo not given) | -0.0015 |
| CCC(=O)OCCNc1cc(Sc2nc3ccccc3[nH]2)c2nonc2c1[N+](=O)[O-] | -3.01 |
| COC(C/C=C/C(=O)COCc1ccccc1)OC | -0.793 |
| CC(C)C[C@H](N)c1nnc(S(=O)(=O)Cc2cccc(F)c2)o1 | -0.677 |
| CCOC(=O)c1cnc2c(F)ccc(F)c2c1Sc1ccccc1 | -0.555 |
| Cc1ccc(-n2nnnc2C(Cl)c2nnnn2-c2ccc(C)cc2)cc1 | 0.341 |
| Cc1ccc(/C=C/C(=O)Nc2ccc(Oc3ccccc3)cc2)o1 | 0.273 |
| CC1=CC(C)(C)Nc2ccc(OC(=O)c3cccnc3)cc21 | 0.309 |
| Cc1[nH]c2ccccc2c(=O)c1C(=O)/C=C/c1ccccc1 | -0.29 |
| O=C1/C(=C/c2ccc(N3CCCC3)cc2)NC(=S)N1C1CC1 | 0.331 |
| O=C(c1ccc(Cl)cc1)c1c[nH]c(C(=O)C(Cl)(Cl)Cl)c1 | -0.174 |
| CCOC(=O)C(=Cc1ccc(F)cc1)C(=O)OCC | 0.507 |
